# “And” between values parts separate entries of the source, which are not always exact repeats. Identical values can stand only once. The whole screen tested about 230,000 compounds, of which about 310 (0.13%) were called active. This list was built around the results that the source calls inconclusive (neither active nor inactive); the mix of calls is not that of the screen. Calls come from the whole dose curve; as a rule, active = well fitted activation curve with a large enough effect; inconclusive = small, poorly fitted or top-dose-only effect; inactive = no such curve, though single readings can be large or run the other way. Potencies of inconclusive entries are doubtful fits and often do not repeat. Where a structure was tested more than once in an assay, its records may differ in their call.
# Experiment: qHTS Multiplex Assay to Identify Dual Action Probes in a Cell Model of Huntington: Cytoprotection (ATP); note: nearly all actives have a fitted effect of over 45% in size;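 for cytoprotection (ATP increase): toxic huntingtin expression switched on by the ecdysone agonist tebufenozide; % of control where 0% means no effect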
# Settings: PC12 HTT-Q103 induced, ATP luminescence, 40 h; cytoprotection (ATP increase): at 56.4 µM (top of the series) unless noted
# Method in brief: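 ATP quantification (ATPlite) reports survival of PC12 cells in which tebufenozide, 100 nM final, switches on Htt exon 1 with 103 glutamines linked to GFP; compounds are titrated.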
# Potency is the fitted concentration of half-maximal effect.
SMILES,Potency,cytoprotection (ATP increase)
NC(=O)c1cnccn1,"inconclusive: 3.55 µM [activator, partial curve]",–
CCOC(=O)c1sc(Nc2nc3cc4c(cc3s2)OCO4)cc1C,–,inactive: 17.2% [at 10 µM]
Cc1ccc(C)c(-c2cc(C(=O)NNC(=S)NCC(C)C)c3ccccc3n2)c1,"inconclusive: 5.62 µM [activator, single point]",–
O=[N+]([O-])c1cc(/C=N/Nc2nc(N3CCCCC3)nc(N3CCCCC3)n2)ccc1O,"inconclusive: 1.26 µM [activator, single point]",–
O=[n+]1c2c(n([O-])c3cc(Br)ccc31)CCC2,"inconclusive: 1.58 µM [activator, partial curve]",–
CCOC(=O)C1(Cc2ccccc2)CCN(Cc2cn(CC(=O)OC)c3ccccc23)CC1,"inconclusive: 2.82 µM [activator, single point]",–
O=C(COc1ccc(Cl)cc1Cl)NN1C(=O)/C(=C\c2ccc(Cl)cc2)SC1=S,"inconclusive: 5.62 µM [activator, single point]",–
O=C(CSc1c2c(nc3ccccc13)CCC2)N1CCCC1,active: 10 µM,–
O=C(c1cnccn1)N1CCC2(CCCN(c3ncccn3)C2)CC1,"inconclusive: 1.26 µM [activator, partial curve, poor fit]",–
O=C(CSc1nnc(-c2ccccc2)c(-c2ccccc2)n1)N1CCOCC1,inactive,–
c1cn(-c2ncnc3ccc(-c4ccoc4)cc23)cn1,active: 2.51 µM,–
COc1ccc(N2C(=O)C(Cl)=C(Nc3ccccc3O)C2=O)cc1,"inconclusive: 5.62 µM [activator, single point]",–
N#CC(C#N)=C1C(=O)N(CCN2CCCCC2)c2ccccc21,–,inactive: 11.8% [at 10 µM]
CC(NCCOCCOc1ccccc1)c1ccccc1 (stereo not drawn),"inconclusive: 0.282 µM [activator, full curve, poor fit]",–
Cc1cc(C)n(-c2nnc(C)n2/N=C/c2ccco2)n1,"inconclusive: 0.501 µM [activator, full curve, poor fit]",–
CS(=O)(=O)N(CC(=O)N1CCCC1)Cc1ccc(Cl)cc1,"inconclusive: 0.891 µM [activator, single point]",–
COC(=O)c1ccc(NC(=O)C(=O)N2CCN(C(=S)Nc3ccc(OC)cc3)CC2)cc1,"inconclusive: 3.98 µM [activator, single point]",–
CC(=O)c1ccc(OC2C=CC(c3ccc(Cl)cc3)OC2CO)cc1 (stereo not drawn),"inconclusive: 1.26 µM [activator, single point]",–
COc1ccccc1CN1CCCC2(CCN(C(=O)c3cccn3C)CC2)C1,"inconclusive: 31.6 µM [activator, single point]",–
CC1=C(C(=O)O)N2C(=O)C(NC(=O)C(N)c3ccccc3)C2SC1 (stereo not drawn),"inconclusive: 0.794 µM [activator, full curve, poor fit]",–
CN1CC=C2C(C#N)=C(N)C(C#N)(C#N)C(c3ccsc3)C2C1 (stereo not drawn),inactive,–

SMILES,Potency,cytoprotection (ATP increase)
COc1ccc(/C=N/NC(=O)Nc2cccc3nsnc23)cc1OC,"inconclusive: 3.16 µM [activator, partial curve]",–
CC1(O)CC(c2ccc(Cl)cc2)=NN1C(=O)c1ccc([N+](=O)[O-])cc1 (stereo not drawn),"inconclusive: 3.16 µM [activator, partial curve, poor fit]",–
CCCn1c(N2CCN(C)CC2)nc2c1c(=O)[nH]c(=O)n2C,"inconclusive: 1.26 µM [activator, single point]",–
Cc1cccc(NC(=S)NCCc2ccccc2)n1,inactive,–
CN(C)CCCO[C@H]1[C@@H]2OC(C)(C)O[C@@H]2O[C@@H]1[C@H](O)CO,"inconclusive: 14.1 µM [activator, partial curve, poor fit]",–
CCOc1cc(NC(=O)CCl)c(OCC)cc1NC(=O)CCl,–,inactive: -20.1% [at 10 µM]
Cc1c(N=C2C=C(Br)C(=O)C(Br)=C2)c(=O)n(-c2ccccc2)n1C,–,inactive: 12.2% [at 10 µM]
O=S(=O)(c1ccc(Cl)c(S(=O)(=O)N2CCCC2)c1)N1CCCC1,–,inactive: -2.37% [at 10 µM]
CCOC(=O)c1ccc(N=Cc2nc3ccccc3n2C)cc1,inactive,–
COc1ccc(C(=O)C2CCCN(Cc3cn[nH]c3-c3ccc(F)cc3)C2)cc1OC (stereo not drawn),"inconclusive: 3.16 µM [activator, partial curve]",–
COCCNc1ncnc2ccc(-c3ccoc3)cc12,inactive,–
CCC1CCCCN1CC(=O)Nc1cc(OC)c(OC)cc1C#N (stereo not drawn),"inconclusive: 1.26 µM [activator, single point]",–
O=C(CN1CCSC1=NCc1ccccc1)c1ccc(Cl)c(Cl)c1,–,inactive: 24.9% [at 10 µM]
CC(=O)c1cnc(Nc2cccc(C)c2)s1,"inconclusive: 3.55 µM [activator, partial curve]",–
CCOC(=O)CSc1cc(CS(=O)(=O)c2ccccc2)nc(-c2ccccc2)n1,"inconclusive: 1 µM [activator, partial curve]",–
CO[C@H]1COC(=O)C/C=C\[C@H](C)[C@@H](NS(=O)(=O)c2ccc(C)cc2)COC(=O)C/C=C\[C@@H]1C,"inconclusive: 1.26 µM [activator, single point]",–
O=C(Nc1ccc(F)cc1)NC1CCCCC1,inactive,–
Cc1ccc(C(=O)OCC(=O)Nc2ccccc2)cc1NC(=O)c1ccco1,"inconclusive: 1 µM [activator, partial curve]",–
O=C(c1ccncc1)N1N=C(C2CCCCC2)CC1(O)C(F)(F)F (stereo not drawn),"inconclusive: 0.708 µM [activator, full curve, poor fit]",–
CCOc1ccc(C2C(C(=O)/C=C/c3ccco3)=C(O)C(=O)N2CCN2CCOCC2)cc1OC (stereo not drawn),"inconclusive: 3.16 µM [activator, single point]",–
COc1ccc2cc([C@H](C)C(=O)O)ccc2c1,"inconclusive: 50.1 nM [activator, full curve, poor fit] and inconclusive: 282 nM [activator, full curve, poor fit] and inconclusive: 5 nM [activator, full curve, poor fit]",–

SMILES,Potency,cytoprotection (ATP increase)
Cc1ncc([N+](=O)[O-])n1CC(C)O (stereo not drawn),"inconclusive: 1 µM [activator, full curve]",–
CC(C)CC(NC(N)=O)C(=O)NCCc1ccc(Cl)cc1 (stereo not drawn),"inconclusive: 1.12 µM [activator, single point]",–
COc1cc(-c2nnc(Sc3ccc(C(F)(F)F)cc3[N+](=O)[O-])o2)cc(OC)c1OC,"inconclusive: 35.5 µM [activator, single point]",–
CCNc1ccc(S(=O)(=O)N(C)C)cc1NCC(=O)Nc1ccc(Br)cc1F,–,inactive: 24.7% [at 10 µM]
OC1(c2ccc(Cl)cc2)CCN(Cc2c[nH]c3ccccc23)CC1,"inconclusive: 0.112 µM [activator, full curve, poor fit]",–
O=C(O)c1ccccc1OP(=O)(O)O,"inconclusive: 562 nM [activator, partial curve] and inconclusive: 1.58 µM [activator, partial curve]",–
COC(=O)C1=C(C)N(Cc2ccco2)C(=O)N[C@H]1c1ccc(Br)cc1,"inconclusive: 10 µM [activator, single point]",–
COc1ccccc1S(=O)(=O)Nc1ccc2cn[nH]c2c1,"inconclusive: 2.24 µM [activator, single point]",–
Oc1ccc(N=C/C=C/c2ccc(Br)cc2)cc1-c1nc2ccccc2s1,"inconclusive: 1.26 µM [activator, single point]",–
CC1=C(/C=C/C(C)=C/C=C/C(C)=C/CO)C(C)(C)CCC1,inactive and active: 10 µM,–
COC(=O)[C@@]1(Cc2ccc(F)cc2)[C@H]2c3cc(C(=O)N(C)C)n(CCc4ccc(OC)c(Br)c4)c3C[C@H]2CN1C(=O)c1ccccc1,"inconclusive: 10 µM [activator, partial curve]",–
CCOc1ccc(C2c3c(oc4ccccc4c3=O)C(=O)N2CCCN2CCOCC2)cc1 (stereo not drawn),inactive,–
COC(=O)C1C(=O)C2=C(CC1C)NC(C)=C(C(=O)OCCOc1ccccc1)C2c1ccc(C)o1 (stereo not drawn),"inconclusive: 0.0891 µM [activator, full curve, poor fit]",–
Cc1ccc(S(=O)(=O)NCCC(=O)OCC(=O)Nc2cccc(S(=O)(=O)NC3=NCCCCC3)c2)cc1,"inconclusive: 14.1 µM [activator, single point]",–
O/N=C(\c1ccc(Cl)cc1Cl)c1ncc(C(F)(F)F)cc1Cl,inactive,–
CCCn1c(N)cc(=O)n(C)c1=O,"inconclusive: 0.398 µM [activator, single point]",–
O=C(COC(=O)CNC(=O)c1ccc(-c2ccccc2)cc1)NCc1ccco1,"inconclusive: 1.26 µM [activator, single point]",–
O=C(c1ccccc1Br)N1CCCC(c2nc(-c3cccs3)no2)C1 (stereo not drawn),"inconclusive: 1.12 µM [activator, full curve]",–
CC(C)C[C@@H](CC(=O)N[C@@H](CCC(=O)O)CC(=O)O)NC(=O)[C@@H]1CNCC[C@H]1NC(=O)C[C@H](CCCN)NC(=O)C[C@H](Cc1c[nH]c2ccccc12)NC(=O)[C@@H]1CNCC[C@H]1N,"inconclusive: 5.62 µM [activator, single point]",–
Clc1ccc(-c2cnc3ccccc3n2)cc1,"inconclusive: 2.51 µM [activator, partial curve, poor fit]",–
CC(C)C[C@H](NC(=O)N1CCCCCC1)C(=O)N[C@H](Cc1cn(C)c2ccccc12)C(=O)N[C@H](Cc1ccccn1)C(=O)O,"inconclusive: 0.447 µM [activator, partial curve]",–
